# Laboratory results: paper PMC10892649
# By UniProt entry, the sequences of proteins in these tests, tags left out.
# UniProt Q6Q9H6: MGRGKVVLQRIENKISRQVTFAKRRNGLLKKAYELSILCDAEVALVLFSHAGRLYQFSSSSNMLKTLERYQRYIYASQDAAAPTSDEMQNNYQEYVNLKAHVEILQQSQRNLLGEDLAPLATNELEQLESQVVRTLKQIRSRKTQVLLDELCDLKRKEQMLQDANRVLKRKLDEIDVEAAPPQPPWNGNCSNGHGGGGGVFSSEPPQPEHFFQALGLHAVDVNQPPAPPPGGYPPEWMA
# UniProt Q10PZ9: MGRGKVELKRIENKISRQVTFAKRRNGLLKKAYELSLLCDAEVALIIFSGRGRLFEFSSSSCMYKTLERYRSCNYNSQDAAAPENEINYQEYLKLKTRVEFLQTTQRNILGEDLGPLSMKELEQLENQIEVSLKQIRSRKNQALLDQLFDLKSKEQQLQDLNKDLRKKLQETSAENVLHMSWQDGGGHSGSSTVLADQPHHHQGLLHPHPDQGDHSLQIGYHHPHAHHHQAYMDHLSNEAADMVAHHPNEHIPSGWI
# Where two headings read alike, the source gives them in different places. Results are given in words; binding and its absence hold for the method and conditions named. For part of these data: Binding seen in cells or lysates may run through a third protein. Some results given as binding are weak or reduced against the parent protein; the word gives no strength. Where a sequence is shown, tags or fusion partners need not be part of it.
# Assays:
# [1] = target: T1, G1 (LONG STERILE LEMMA1), full length, yeast two-hybrid fusion (rice (Oryza sativa)) (UniProt Q8GVZ6); assay: two-hybrid; yeast AH109; pGBKT7 (Gal4 DNA-binding domain) and pGADT7 fusions; empty pGBKT7 and pGADT7 as negative controls
# T1 sequence: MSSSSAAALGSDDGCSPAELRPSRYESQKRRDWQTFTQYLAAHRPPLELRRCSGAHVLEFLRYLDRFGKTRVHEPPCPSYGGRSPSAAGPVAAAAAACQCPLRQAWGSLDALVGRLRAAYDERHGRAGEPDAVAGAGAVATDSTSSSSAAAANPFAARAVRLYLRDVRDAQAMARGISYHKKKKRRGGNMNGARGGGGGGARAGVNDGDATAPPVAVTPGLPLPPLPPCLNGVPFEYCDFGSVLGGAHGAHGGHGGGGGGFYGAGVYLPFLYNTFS
# [2] = target: T2, G1^170–276, yeast two-hybrid fusion (rice (Oryza sativa)) (UniProt Q8GVZ6); assay: as above
# T2 sequence: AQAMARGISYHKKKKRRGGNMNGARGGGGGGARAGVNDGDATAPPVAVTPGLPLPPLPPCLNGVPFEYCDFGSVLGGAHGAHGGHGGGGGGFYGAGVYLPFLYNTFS
# [3] = target: OsMADS34, yeast two-hybrid fusion (rice (Oryza sativa)) (UniProt Q6Q9H6); assay: as above
# [4] = target: T1, G1 (LONG STERILE LEMMA1), full length, yeast two-hybrid fusion (rice (Oryza sativa)); assay: as above; remark: listed apart in the source
# [5] = target: GST-OsMADS1 (rice (Oryza sativa)) (UniProt Q10PZ9); assay: pull-down; GST pull-down in vitro; GST fusion as bait, His-G1 as prey; proteins expressed in E. coli BL21 Rosetta; immunoblot with anti-GST or anti-His
# [6] = target: T3, GST-G1 (rice (Oryza sativa)) (UniProt Q8GVZ6); assay: as above
# T3 sequence: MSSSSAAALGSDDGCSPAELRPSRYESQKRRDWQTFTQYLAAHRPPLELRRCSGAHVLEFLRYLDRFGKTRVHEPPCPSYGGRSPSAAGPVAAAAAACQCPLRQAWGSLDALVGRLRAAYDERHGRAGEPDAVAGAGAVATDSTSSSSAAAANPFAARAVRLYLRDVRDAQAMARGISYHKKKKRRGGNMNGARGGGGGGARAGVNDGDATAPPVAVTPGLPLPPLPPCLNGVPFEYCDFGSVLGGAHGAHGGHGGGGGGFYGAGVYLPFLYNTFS
# [7] = target: OsMADS1, BiFC fusion (cYFP-OsMADS1 and nYFP-OsMADS1) (rice (Oryza sativa)) (UniProt Q10PZ9); assay: split reporter; BiFC with nYFP and cYFP fusions expressed in N. benthamiana leaves; YFP fluorescence by confocal microscopy
# [8] = target: G1, BiFC fusion (cYFP-G1 and nYFP-G1) (rice (Oryza sativa)) (UniProt Q8GVZ6); assay: as above
molecule,measurement,setting,value
"OsMADS1, yeast two-hybrid fusion (from UniProt Q10PZ9 1-257)",binding,[1],binds
same,binding,[2],binds
"G1 (LONG STERILE LEMMA1), full length, yeast two-hybrid fusion (protein, UniProt Q8GVZ6 1-276) MSSSSAAALGSDDGCSPAELRPSRYESQKRRDWQTFTQYLAAHRPPLELRRCSGAHVLEFLRYLDRFGKTRVHEPPCPSYGGRSPSAAGPVAAAAAACQCPLRQAWGSLDALVGRLRAAYDERHGRAGEPDAVAGAGAVATDSTSSSSAAAANPFAARAVRLYLRDVRDAQAMARGISYHKKKKRRGGNMNGARGGGGGGARAGVNDGDATAPPVAVTPGLPLPPLPPCLNGVPFEYCDFGSVLGGAHGAHGGHGGGGGGFYGAGVYLPFLYNTFS",binding,[3],no binding
same,binding,[4],binds
"His-G1 (protein, UniProt Q8GVZ6 1-276) MSSSSAAALGSDDGCSPAELRPSRYESQKRRDWQTFTQYLAAHRPPLELRRCSGAHVLEFLRYLDRFGKTRVHEPPCPSYGGRSPSAAGPVAAAAAACQCPLRQAWGSLDALVGRLRAAYDERHGRAGEPDAVAGAGAVATDSTSSSSAAAANPFAARAVRLYLRDVRDAQAMARGISYHKKKKRRGGNMNGARGGGGGGARAGVNDGDATAPPVAVTPGLPLPPLPPCLNGVPFEYCDFGSVLGGAHGAHGGHGGGGGGFYGAGVYLPFLYNTFS",binding,[5],binds
same,binding,[6],binds
"G1, BiFC fusion (cYFP-G1 and nYFP-G1) (protein, UniProt Q8GVZ6 1-276) MSSSSAAALGSDDGCSPAELRPSRYESQKRRDWQTFTQYLAAHRPPLELRRCSGAHVLEFLRYLDRFGKTRVHEPPCPSYGGRSPSAAGPVAAAAAACQCPLRQAWGSLDALVGRLRAAYDERHGRAGEPDAVAGAGAVATDSTSSSSAAAANPFAARAVRLYLRDVRDAQAMARGISYHKKKKRRGGNMNGARGGGGGGARAGVNDGDATAPPVAVTPGLPLPPLPPCLNGVPFEYCDFGSVLGGAHGAHGGHGGGGGGFYGAGVYLPFLYNTFS",binding,[7],binds
same,binding,[8],binds
"G1^170–276, yeast two-hybrid fusion (domain or fragment, UniProt Q8GVZ6 170-276) AQAMARGISYHKKKKRRGGNMNGARGGGGGGARAGVNDGDATAPPVAVTPGLPLPPLPPCLNGVPFEYCDFGSVLGGAHGAHGGHGGGGGGFYGAGVYLPFLYNTFS",binding,[3],no binding
